Our source for the binding values is publication PMC7864070.

The chains behind the UniProt entries cited, without tags or fusion partners. Where a name states a change or a piece, a line headed by the entry shows the natural chain unless it says otherwise. A line that says so, or that is headed by a name, gives the form on record, which may keep a tag or linker. Residues count along the entry.
eYFP-ATZ (enhanced YFP-tagged α1-antitrypsin Z, E342K), expressed in Huh7.5 cells (P01009, form named): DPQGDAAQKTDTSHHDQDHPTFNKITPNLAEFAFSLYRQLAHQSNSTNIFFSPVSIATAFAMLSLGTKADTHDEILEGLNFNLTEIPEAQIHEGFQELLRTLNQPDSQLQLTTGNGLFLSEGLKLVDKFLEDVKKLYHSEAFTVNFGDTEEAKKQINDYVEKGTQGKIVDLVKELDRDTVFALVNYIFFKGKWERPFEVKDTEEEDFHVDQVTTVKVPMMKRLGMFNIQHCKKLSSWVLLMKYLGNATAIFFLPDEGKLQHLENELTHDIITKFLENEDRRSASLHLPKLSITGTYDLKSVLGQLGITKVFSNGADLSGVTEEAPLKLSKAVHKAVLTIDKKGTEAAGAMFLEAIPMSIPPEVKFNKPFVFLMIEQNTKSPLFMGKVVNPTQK
UniProt Q86VP6: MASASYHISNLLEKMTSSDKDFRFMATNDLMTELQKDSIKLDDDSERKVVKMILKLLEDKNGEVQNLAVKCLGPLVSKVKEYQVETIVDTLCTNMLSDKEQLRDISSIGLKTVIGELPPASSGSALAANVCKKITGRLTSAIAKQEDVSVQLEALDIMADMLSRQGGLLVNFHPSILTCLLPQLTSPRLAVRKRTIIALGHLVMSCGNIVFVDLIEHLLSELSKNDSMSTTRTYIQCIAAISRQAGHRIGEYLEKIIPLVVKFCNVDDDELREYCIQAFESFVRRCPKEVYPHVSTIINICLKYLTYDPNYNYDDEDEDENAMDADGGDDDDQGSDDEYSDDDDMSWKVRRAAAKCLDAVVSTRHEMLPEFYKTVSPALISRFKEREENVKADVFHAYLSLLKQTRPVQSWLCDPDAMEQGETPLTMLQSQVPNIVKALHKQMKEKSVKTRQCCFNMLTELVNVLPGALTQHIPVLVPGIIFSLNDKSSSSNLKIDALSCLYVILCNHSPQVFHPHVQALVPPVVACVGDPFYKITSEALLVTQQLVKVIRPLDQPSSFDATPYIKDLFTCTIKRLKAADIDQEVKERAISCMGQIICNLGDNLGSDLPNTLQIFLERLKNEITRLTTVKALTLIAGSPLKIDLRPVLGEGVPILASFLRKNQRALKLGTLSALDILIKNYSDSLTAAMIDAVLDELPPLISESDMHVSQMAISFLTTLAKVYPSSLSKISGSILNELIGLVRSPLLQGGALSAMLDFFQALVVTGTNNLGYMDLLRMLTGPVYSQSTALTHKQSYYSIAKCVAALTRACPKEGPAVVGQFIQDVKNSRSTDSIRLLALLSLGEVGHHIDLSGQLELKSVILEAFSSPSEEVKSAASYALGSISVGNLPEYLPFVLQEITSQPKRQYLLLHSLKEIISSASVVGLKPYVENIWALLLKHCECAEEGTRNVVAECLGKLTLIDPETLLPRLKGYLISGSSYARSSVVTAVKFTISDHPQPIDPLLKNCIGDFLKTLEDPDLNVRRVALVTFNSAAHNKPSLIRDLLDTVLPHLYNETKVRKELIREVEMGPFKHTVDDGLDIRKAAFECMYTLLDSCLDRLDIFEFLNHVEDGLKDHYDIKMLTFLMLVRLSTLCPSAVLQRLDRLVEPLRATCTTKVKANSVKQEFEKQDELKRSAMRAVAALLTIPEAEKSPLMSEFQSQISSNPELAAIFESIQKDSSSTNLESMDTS
UniProt P34932: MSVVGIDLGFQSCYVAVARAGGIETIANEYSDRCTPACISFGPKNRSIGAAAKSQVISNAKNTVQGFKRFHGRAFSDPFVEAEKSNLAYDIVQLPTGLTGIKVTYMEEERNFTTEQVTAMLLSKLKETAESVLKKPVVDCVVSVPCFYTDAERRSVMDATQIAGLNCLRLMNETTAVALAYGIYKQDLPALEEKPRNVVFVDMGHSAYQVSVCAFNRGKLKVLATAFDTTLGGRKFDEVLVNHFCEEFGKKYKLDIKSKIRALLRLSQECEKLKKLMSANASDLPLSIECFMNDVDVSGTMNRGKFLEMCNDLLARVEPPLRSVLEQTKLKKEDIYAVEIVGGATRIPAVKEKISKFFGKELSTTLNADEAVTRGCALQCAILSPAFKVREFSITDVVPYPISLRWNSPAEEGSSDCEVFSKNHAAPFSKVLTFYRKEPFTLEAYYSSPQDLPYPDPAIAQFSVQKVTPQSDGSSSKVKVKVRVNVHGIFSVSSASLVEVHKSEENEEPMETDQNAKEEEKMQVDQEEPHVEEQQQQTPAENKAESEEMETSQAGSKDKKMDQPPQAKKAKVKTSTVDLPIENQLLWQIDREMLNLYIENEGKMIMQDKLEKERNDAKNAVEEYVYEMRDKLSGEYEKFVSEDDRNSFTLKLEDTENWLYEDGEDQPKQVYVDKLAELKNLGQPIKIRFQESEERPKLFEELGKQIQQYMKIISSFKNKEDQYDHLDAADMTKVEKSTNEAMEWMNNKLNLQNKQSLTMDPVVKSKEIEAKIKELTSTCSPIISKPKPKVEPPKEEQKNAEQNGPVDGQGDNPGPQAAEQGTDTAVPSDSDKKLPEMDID
UniProt P30101, residues 25-505: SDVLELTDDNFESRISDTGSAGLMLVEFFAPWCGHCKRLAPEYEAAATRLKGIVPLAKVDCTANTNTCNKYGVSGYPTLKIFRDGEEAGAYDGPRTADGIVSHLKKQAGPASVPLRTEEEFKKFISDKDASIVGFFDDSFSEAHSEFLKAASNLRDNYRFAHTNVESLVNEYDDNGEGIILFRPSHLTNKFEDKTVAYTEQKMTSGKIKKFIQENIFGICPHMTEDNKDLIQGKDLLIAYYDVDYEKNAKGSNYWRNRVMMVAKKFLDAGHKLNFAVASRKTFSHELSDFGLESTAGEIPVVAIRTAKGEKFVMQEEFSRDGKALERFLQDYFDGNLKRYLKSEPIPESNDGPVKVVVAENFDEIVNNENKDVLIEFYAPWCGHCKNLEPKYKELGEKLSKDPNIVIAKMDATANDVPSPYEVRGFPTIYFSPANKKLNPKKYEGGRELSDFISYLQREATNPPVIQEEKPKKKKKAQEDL
UniProt O14818: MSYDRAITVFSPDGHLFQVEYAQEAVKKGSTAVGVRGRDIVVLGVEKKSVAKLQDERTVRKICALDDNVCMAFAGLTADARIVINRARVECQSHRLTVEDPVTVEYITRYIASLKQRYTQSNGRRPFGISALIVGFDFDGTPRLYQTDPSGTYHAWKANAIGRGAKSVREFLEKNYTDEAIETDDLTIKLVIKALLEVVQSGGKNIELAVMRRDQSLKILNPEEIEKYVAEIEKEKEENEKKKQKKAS
UniProt P11021, residues 19-654: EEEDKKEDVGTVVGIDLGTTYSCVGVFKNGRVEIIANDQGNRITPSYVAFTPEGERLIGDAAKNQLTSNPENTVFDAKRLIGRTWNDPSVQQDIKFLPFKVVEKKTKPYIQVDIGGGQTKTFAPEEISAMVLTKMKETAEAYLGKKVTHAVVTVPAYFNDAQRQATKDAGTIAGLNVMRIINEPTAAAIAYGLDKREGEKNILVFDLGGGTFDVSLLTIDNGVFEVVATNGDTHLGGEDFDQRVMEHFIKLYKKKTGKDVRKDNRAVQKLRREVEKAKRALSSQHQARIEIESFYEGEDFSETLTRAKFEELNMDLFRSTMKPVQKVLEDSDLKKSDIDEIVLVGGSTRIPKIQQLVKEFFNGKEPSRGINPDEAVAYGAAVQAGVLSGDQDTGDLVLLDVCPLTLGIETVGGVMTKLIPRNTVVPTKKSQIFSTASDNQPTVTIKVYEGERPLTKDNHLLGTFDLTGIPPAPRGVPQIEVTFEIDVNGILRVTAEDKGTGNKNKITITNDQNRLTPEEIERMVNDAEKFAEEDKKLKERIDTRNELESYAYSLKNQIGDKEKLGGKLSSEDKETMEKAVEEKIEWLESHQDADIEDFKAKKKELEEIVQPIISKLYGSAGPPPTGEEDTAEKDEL
UniProt P27824, residues 21-592: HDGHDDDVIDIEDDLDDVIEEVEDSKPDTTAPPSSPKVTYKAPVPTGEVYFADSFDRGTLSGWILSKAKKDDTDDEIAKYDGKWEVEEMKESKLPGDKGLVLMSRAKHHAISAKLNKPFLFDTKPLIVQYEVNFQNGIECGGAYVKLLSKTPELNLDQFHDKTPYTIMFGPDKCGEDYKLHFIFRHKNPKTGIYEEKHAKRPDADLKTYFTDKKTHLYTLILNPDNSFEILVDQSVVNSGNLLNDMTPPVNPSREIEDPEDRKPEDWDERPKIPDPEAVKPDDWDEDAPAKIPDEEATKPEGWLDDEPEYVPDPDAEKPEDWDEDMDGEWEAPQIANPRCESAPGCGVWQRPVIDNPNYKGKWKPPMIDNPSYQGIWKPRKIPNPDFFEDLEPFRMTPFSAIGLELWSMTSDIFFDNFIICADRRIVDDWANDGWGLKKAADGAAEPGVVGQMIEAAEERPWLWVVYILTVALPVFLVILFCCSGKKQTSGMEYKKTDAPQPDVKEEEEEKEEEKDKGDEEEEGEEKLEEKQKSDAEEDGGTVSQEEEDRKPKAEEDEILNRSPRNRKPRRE
UniProt P53621: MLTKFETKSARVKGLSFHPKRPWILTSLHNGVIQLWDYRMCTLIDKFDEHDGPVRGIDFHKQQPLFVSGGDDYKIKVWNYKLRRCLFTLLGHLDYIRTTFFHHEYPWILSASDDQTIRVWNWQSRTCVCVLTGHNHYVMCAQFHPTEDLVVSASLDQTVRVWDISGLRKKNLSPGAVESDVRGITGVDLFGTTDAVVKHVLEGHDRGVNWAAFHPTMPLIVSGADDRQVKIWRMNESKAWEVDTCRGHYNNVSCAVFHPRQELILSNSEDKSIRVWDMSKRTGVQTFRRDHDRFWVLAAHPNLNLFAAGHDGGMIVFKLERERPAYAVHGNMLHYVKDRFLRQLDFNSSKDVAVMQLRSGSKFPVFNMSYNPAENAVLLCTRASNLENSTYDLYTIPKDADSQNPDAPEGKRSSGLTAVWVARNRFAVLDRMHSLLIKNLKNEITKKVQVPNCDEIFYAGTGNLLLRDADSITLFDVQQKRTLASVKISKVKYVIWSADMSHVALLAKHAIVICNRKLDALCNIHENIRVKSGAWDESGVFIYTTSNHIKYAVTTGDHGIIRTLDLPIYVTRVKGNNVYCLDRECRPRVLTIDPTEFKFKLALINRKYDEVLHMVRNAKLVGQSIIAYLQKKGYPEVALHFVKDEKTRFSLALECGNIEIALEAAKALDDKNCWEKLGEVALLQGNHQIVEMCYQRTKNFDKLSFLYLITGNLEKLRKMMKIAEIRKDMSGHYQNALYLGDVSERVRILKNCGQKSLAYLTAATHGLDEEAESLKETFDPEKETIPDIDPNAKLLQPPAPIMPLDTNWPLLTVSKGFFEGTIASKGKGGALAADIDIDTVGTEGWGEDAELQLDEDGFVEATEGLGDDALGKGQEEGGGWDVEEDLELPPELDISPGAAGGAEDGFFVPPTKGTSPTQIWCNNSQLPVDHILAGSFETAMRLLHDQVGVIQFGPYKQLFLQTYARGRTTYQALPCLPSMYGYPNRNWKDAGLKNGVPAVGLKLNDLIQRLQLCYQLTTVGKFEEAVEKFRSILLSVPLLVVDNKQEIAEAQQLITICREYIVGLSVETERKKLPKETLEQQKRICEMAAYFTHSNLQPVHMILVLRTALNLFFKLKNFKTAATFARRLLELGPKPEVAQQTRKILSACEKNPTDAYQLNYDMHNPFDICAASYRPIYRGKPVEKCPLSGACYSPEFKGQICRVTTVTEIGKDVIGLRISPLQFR
UniProt P53618: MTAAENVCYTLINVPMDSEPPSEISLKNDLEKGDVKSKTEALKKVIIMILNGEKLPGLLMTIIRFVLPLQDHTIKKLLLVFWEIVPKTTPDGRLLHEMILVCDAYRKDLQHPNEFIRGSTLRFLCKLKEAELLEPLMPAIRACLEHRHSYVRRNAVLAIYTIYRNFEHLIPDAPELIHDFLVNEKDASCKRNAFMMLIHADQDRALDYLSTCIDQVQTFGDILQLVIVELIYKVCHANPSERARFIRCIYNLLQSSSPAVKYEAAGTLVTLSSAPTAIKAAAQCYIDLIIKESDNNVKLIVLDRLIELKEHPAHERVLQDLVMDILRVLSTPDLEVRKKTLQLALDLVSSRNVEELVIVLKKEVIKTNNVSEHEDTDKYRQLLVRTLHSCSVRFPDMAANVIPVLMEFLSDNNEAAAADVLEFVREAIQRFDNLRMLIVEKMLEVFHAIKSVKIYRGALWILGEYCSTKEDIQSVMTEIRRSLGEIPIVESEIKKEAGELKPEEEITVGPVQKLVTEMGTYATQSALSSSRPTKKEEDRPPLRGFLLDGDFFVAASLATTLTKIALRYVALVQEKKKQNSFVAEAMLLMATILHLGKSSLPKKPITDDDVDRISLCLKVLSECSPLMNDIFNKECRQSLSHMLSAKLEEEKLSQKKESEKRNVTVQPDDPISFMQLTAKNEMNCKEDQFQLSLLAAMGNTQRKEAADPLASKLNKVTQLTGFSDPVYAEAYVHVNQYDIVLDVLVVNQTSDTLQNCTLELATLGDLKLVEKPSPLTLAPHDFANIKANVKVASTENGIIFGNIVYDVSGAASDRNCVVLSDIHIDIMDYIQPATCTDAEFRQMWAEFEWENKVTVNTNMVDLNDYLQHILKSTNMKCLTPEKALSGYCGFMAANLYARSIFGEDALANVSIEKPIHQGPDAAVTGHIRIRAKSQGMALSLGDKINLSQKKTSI

No constants are given. Whether binding was seen depends on the method and setting. Binding seen in cells or lysates may run through a third protein. These calls come from enrichment with a bait or labelling near it, and not all partners need be listed.

First the molecules themselves.
B1: calmegin (CLGN), endogenous in Huh7.5 cells (protein, UniProt O14967 20-610)
chain: EFMDDDVETEDFEENSEEIDVNESELSSEIKYKTPQPIGEVYFAETFDSGRLAGWVLSKAKKDDMDEEISIYDGRWEIEELKENQVPGDRGLVLKSRAKHHAISAVLAKPFIFADKPLIVQYEVNFQDGIDCGGAYIKLLADTDDLILENFYDKTSYIIMFGPDKCGEDYKLHFIFRHKHPKTGVFEEKHAKPPDVDLKKFFTDRKTHLYTLVMNPDDTFEVLVDQTVVNKGSLLEDVVPPIKPPKEIEDPNDKKPEEWDERAKIPDPSAVKPEDWDESEPAQIEDSSVVKPAGWLDDEPKFIPDPNAEKPDDWNEDTDGEWEAPQILNPACRIGCGEWKPPMIDNPKYKGVWRPPLVDNPNYQGIWSPRKIPNPDYFEDDHPFLLTSFSALGLELWSMTSDIYFDNFIICSEKEVADHWAADGWRWKIMIANANKPGVLKQLMAAAEGHPWLWLIYLVTAGVPIALITSFCWPRKVKKKHKDTEYKKTDICIPQTKGVLEQEEKEEKAALEKPMDLEEEKKQNDGEMLEKEEESEPEEKSEEEIEIIEGQEESNQSNKSGSEDEMKEADESTGSGDGPIKSVRKRRVRKD

The first test has as its target eYFP-ATZ (enhanced YFP-tagged α1-antitrypsin Z, E342K), expressed in Huh7.5 cells (human) (UniProt P01009). Nature of the test: affinity purification with mass spectrometry; eYFP-ATZ precipitated with GFP-Trap agarose from 1% Triton X-100 lysates (4 mg) of transfected Huh7.5 cells (CRT KO, CNX KO and their WT controls), 24 h after transfection; cells cross-linked with 2 mM DTBP before lysis; on-bead trypsin digest, LC-MS/MS; cutoff >= 8 PSM in WT, three replicates.
For the molecule “CAND1, endogenous in Huh7.5 cells (from UniProt Q86VP6 1-1230)”, the binding entry is “binds”. Same read-out and setting: under “HSPA4, endogenous in Huh7.5 cells (from UniProt P34932 1-840)” stands “binds”; under “PDIA3 (ERp57), endogenous in Huh7.5 cells (from UniProt P30101 25-505)”, “binds”; under “PMSA7 (as printed), endogenous in Huh7.5 cells (from UniProt O14818 1-248)”, “binds”. Same read-out and setting: under “binding immunoglobulin protein (BiP, HSPA5), endogenous in Huh7.5 cells (from UniProt P11021 19-654)” stands “binds”; under “calnexin (CNX), endogenous in Huh7.5 cells (from UniProt P27824 21-592)”, “binds”. The same measure, in the same setting: under “α-COP, endogenous in Huh7.5 cells (from UniProt P53621 1-1224)” stands “binds”; under “β-COP, endogenous in Huh7.5 cells (from UniProt P53618 1-953)”, “binds”.

For the next test the target is unchanged. The test is described as above. This is another data set of the same source.
For B1, the binding entry is reported as “binds”.
